Measured values from paper PMC6555802.
These are yes or no findings as the source states them, for the method shown. In cells and extracts the contact can be indirect. A yes stands for co-enrichment or nearness to the bait. Other partners may have been found. Sequences can lack the tags named with a protein.

The chains behind the UniProt entries cited, without tags or fusion partners.
UniProt P20338: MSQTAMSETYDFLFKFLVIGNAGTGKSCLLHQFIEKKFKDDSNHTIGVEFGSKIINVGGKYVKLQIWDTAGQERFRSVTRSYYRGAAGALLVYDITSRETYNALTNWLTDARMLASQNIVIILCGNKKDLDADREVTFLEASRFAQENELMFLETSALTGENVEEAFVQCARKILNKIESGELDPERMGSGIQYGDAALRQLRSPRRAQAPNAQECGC
UniProt P61026: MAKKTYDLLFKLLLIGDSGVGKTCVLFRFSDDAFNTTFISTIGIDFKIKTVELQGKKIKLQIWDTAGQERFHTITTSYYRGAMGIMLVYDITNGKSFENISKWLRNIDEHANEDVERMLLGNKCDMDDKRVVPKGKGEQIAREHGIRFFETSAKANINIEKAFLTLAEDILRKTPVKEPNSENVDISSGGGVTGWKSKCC

Molecular target: T1, 3xFlag-CHML (human) (UniProt P26374)
T1 sequence: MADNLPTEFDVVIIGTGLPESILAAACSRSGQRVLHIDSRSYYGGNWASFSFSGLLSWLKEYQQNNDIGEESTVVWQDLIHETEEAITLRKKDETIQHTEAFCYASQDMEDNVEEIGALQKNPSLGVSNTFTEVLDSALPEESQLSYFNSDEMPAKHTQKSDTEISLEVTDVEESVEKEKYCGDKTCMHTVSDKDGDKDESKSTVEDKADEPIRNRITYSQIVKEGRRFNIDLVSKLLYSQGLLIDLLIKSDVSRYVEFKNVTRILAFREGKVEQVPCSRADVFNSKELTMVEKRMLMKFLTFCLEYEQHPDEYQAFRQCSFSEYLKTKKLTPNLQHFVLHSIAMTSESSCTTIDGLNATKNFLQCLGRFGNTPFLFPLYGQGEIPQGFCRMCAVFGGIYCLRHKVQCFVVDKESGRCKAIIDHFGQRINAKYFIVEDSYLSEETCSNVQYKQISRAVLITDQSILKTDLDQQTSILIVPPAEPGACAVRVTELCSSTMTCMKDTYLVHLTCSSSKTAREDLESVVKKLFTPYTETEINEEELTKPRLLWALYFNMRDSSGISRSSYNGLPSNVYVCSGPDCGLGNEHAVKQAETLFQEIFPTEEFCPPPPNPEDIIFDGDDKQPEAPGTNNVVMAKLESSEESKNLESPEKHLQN
Assay: affinity purification with mass spectrometry; 3xFlag-CHML overexpressed in 293T cells, immunoprecipitated with anti-Flag beads; silver-stained band just beneath 25KD analysed by tandem mass spectrum

binding	Substance
binds	Rab4A (from UniProt P20338 1-218)
binds	Rab10 (from UniProt P61026 1-200)
